Experimental data reported in US10385021B2, “Carbamate compound and use thereof” (SUMITOMO CHEMICAL COMPANY, LIMITED, priority 2015, dated 2019).
Some entries share one result that the patent states for a list of compounds.

Columns and labels:
Type in all cases: in vivo
[1] = tested on: barley net blotch fungus (Pyrenophora teres); experiment: Test Example 1: barley net blotch, foliar spray before inoculation, lesion area; conditions: 500 ppm foliar spray, barley (Mikamo-Golden), inoculated 2 days after spraying, formulation per Formulation Example 6
[2] = tested on: wheat rust fungus (Puccinia recondita); experiment: Test Example 2: wheat rust, foliar spray before inoculation, lesion area; conditions: 200 ppm foliar spray, wheat (Shirogane), inoculated 5 days after spraying, formulation per Formulation Example 6
[3] = tested on: kidney bean stem rot fungus (Sclerotinia sclerotiorum); experiment: Test Example 4: kidney bean stem rot, foliar spray before inoculation, lesion area; conditions: 500 ppm foliar spray, kidney bean (Nagauzura Saito), assessed four days after inoculation, formulation per Formulation Example 6

COC(=O)Nc1cccc(C)c1COc1ccc(-c2ccc(C)cn2)cc1C [Compound 1]
≤ 30%: area of the lesion relative to untreated barley [1] | area of the lesion relative to untreated wheat [2] | area of the lesion relative to untreated kidney bean [3]

COC(=O)Nc1cccc(C)c1COc1ccc(-c2cccc(C)n2)cc1C [Compound 5]
≤ 30%: area of the lesion relative to untreated barley [1] | area of the lesion relative to untreated wheat [2] | area of the lesion relative to untreated kidney bean [3]
